Publication PMC4338043
No constants are given. Whether binding was seen depends on the method and setting. Some results given as binding are weak or reduced against the parent protein; the word gives no strength.

Target: Neisseria meningitidis inosine-5'-monophosphate dehydrogenase (Neisseria meningitidis strain FAM18) (UniProt Q9JZB5)
Experiment: AUC; both purified

binding: binds
B1: Neisseria meningitidis inosine-5'-monophosphate dehydrogenase (enzyme, UniProt Q9JZB5 1-487)
chain: MRIVEKAYTFDDVLLVPAHSTVLPRDVKLQTKLTREITLNLPLLSAAMDTVTEARLAISMAQEGGIGIIHKNMPPEMQARAVSKVKRHESGVVKDPVTVAPTTLIREVLEMRAQRKRKMSGLPVVENGKVVGIVTNRDLRFENRVDLPVSAIMTPRERLVTVPEGTSIDEARELMHTHKVERVLVLNEKDELKGLITVKDILKTTEFPNANKDSEGRLRVGAAVGTGGDTEERVKALVEAGVDVIVVDTAHGHSQGVIDRVRWVKETYPHIQVIGGNIATAKAALDLVAAGADAVKVGIGPGSICTTRIVAGVGVPQLTAIHNVAEALKGTGVPLIADGGIRFSGDIAKALAAGAYSVMLGGMFAGTEEAPGEIELYQGRSYKSYRGMGSLGAMSQGSADRYFQDKTDSTDKYVPEGIEGRVPYKGPIVNIIHQLTGGLRSSMGYLGCANIAEMHEKAEFVEITSAGMSESHVHDVQITKEAPNYHR
